# Percent effect of library compounds

Mtb cholesterol medium: 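Phenotypic screen: M. tuberculosis growth, cholesterol and DPPC medium, 4 days; the read-out is not stated. Tested at 50 µM. Higher reads as more growth inhibition (inferred: compounds with an IC50 in retests scored well above the rest). Size under these conditions: about 69,000 compounds, about 370 of them at 50% or above in at least one test.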
Mtb glucose medium: 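Growth of Mycobacterium tuberculosis over 3 days (7H9 medium with glucose and tyloxapol); the read-out is not stated. Tested at 50 µM. Higher reads as more growth inhibition (inferred: compounds with an IC50 in retests scored well above the rest). About 69,000 compounds were tested under these conditions; 1.1% (about 760) showed 50% or more at least once.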

Each number is a percent effect as filed. The controls that fix the scale are not given in the record; negative values are as filed. The compounds are a random part of those screened. Two or more numbers in one place are separate tests of the same structure; such repeats can differ widely.

{"smiles": "[H][C@@]12C[C@@H](c3nnc(C4CC4)o3)O[C@]1([H])CN(C(=O)c1cscn1)C2", "Mtb cholesterol medium": 8.349, "Mtb glucose medium": 4.492}
{"smiles": "O=C(NCCNc1ncccn1)C1CCN(C(=O)N2CCCC2)CC1", "Mtb cholesterol medium": 5.491, "Mtb glucose medium": "23.19 & -3.55"}
{"smiles": "OC1(CN2CCc3nnc(Cc4cccnc4)n3CC2)CCCNC1", "stereo": "stereo unspecified", "Mtb cholesterol medium": -33.36, "Mtb glucose medium": -20.91}
{"smiles": "Cc1cccc(CN2CC3C[C@]3(NC(=O)c3cccc(F)c3)C2)n1.O=C(O)C(F)(F)F", "stereo": "stereo partly specified", "Mtb cholesterol medium": 5.821, "Mtb glucose medium": "1.815 & 9.922"}
{"smiles": "COc1ccc(Cl)cc1NC(=O)CNc1ccn(CC(N)=O)n1", "Mtb cholesterol medium": -11.08, "Mtb glucose medium": -29.34}
{"smiles": "CC(C)CC1SCC(=O)Nc2c1cnn2-c1ccc(F)cc1", "stereo": "stereo unspecified", "Mtb cholesterol medium": 3.032, "Mtb glucose medium": 9.844}
{"smiles": "C[C@H](C(=O)N1Cc2ccccc2CC2(CCCN2C)C1)c1ccccc1", "stereo": "stereo partly specified", "Mtb cholesterol medium": -14.2, "Mtb glucose medium": 12.8}
{"smiles": "[H][C@]12CC[C@]([H])(CN(S(C)(=O)=O)C1)N(Cc1ccsc1)C2", "Mtb cholesterol medium": "-39.61 & -9.622", "Mtb glucose medium": -59.69}
{"smiles": "Cc1ocnc1C(=O)N1CCC(c2nccn2Cc2ccncc2)CC1", "Mtb cholesterol medium": "2.104 & -0.9031", "Mtb glucose medium": 2.389}
{"smiles": "COc1cccc(S(=O)(=O)CCNC2CCc3ncnn3C2)c1", "stereo": "stereo unspecified", "Mtb cholesterol medium": -13.99, "Mtb glucose medium": -15}
{"smiles": "CNC(=O)c1cccc(CNC(C)c2ccc(F)cc2N(C)C)c1", "stereo": "stereo unspecified", "Mtb cholesterol medium": "-6.679 & 12.47", "Mtb glucose medium": "29.14 & 38.56"}
{"smiles": "O=C1CC(c2cccs2)Cc2[nH]c(=O)c(C(=O)NC3CCCC3)cc21", "stereo": "stereo unspecified", "Mtb cholesterol medium": "-12.84 & 5.371", "Mtb glucose medium": -4.857}
{"smiles": "CNc1snc(C)c1C(=O)NC(C)CC(=O)c1cccs1", "stereo": "stereo unspecified", "Mtb cholesterol medium": 0.9532, "Mtb glucose medium": 23.84}
{"smiles": "Cc1cc2c(=O)n3c(nc2s1)CCN(C(=O)c1ccnn1C)CC3", "Mtb cholesterol medium": -9.787, "Mtb glucose medium": -0.591}
{"smiles": "Cc1cc(C)c(CNC(=O)NCCNc2ccccn2)c(=O)[nH]1", "Mtb cholesterol medium": -8.532, "Mtb glucose medium": "-1.474 & -8.722"}
{"smiles": "C=C(C)COc1ccc(C(=O)NCCn2c(C)cc(C)nc2=O)cc1", "Mtb cholesterol medium": 6.643, "Mtb glucose medium": 28.65}
{"smiles": "CN1CCOC(c2cncc(CCC(N)=O)n2)C1", "stereo": "stereo unspecified", "Mtb cholesterol medium": 18.94, "Mtb glucose medium": 14.7}
{"smiles": "O=C(NCCNS(=O)(=O)c1cc(F)cc(F)c1)c1ccoc1", "Mtb cholesterol medium": 2.273, "Mtb glucose medium": 6.56}
{"smiles": "O=C1N(Cc2cccc(F)c2)CCC12CCCN(c1ncc(F)cn1)C2", "stereo": "stereo unspecified", "Mtb cholesterol medium": -22.79, "Mtb glucose medium": 6.17}
{"smiles": "CCc1nc(CC(=O)Nc2cnn(CC3CCCO3)c2)cs1", "stereo": "stereo unspecified", "Mtb cholesterol medium": 12.64, "Mtb glucose medium": 12.05}
{"smiles": "O=C(O)C(F)(F)F.[H][C@@]12CCN(Cc3ccco3)[C@]1([H])CC[C@H](COC)O2", "Mtb cholesterol medium": -15.43, "Mtb glucose medium": -10.3}
{"smiles": "O=C(c1ccccc1)N1CCN(CC2CCOc3ccccc3C2)CC1", "stereo": "stereo unspecified", "Mtb cholesterol medium": -15.08, "Mtb glucose medium": "3.566 & -5.726"}
{"smiles": "O=C(O)c1cccnc1CN1CCCCC1CCc1cccc(O)c1", "stereo": "stereo unspecified", "Mtb cholesterol medium": -1.195, "Mtb glucose medium": "-11.38 & -9.807"}
{"smiles": "CCc1nc(C)c(CN2CCN(c3ncnc4c(C)csc34)CC2)[nH]1", "Mtb cholesterol medium": 15.43, "Mtb glucose medium": "14.75 & 4.183"}
{"smiles": "Cc1occc1C(=O)N1Cc2nccn2CC(CN2CCOCC2)C1.O=C(O)C(F)(F)F", "stereo": "stereo unspecified", "Mtb cholesterol medium": "-10.35 & -11.75", "Mtb glucose medium": -6.899}

Some entries from above, unchanged:

With O=C1N(Cc2cccc(F)c2)CCC12CCCN(c1ncc(F)cn1)C2 (stereo unspecified) the screen gave Mtb cholesterol medium: -22.79%; Mtb glucose medium: 6.17%.
With O=C(NCCNc1ncccn1)C1CCN(C(=O)N2CCCC2)CC1 the screen gave Mtb cholesterol medium: 5.491%; Mtb glucose medium: 23.19% & -3.55%.

From ChEMBL document CHEMBL3988442, “University of Dundee, Small-Polar-MMV Screening Library” (2021).